Assay results taken from patent publication EP0659072B1, “PHAR[…] […] STEROIDS” (Pharmacia AB, priority 1993, dated 1995).

Experiment: Quality of castor oil containing emulsions with different steroids (pH, volume distribution, span, storage stability)
Type: physicochemical
Settings: for D(4:3) / pH / Span: emulsion of the steroid; for pH: heat sterilized; for Span: Malvern Mastersizer; for Storage 5 and 40°C: storage stability of emulsion
Description: In order to determinate the quality of the castor oil containing emulsions with different steroids, the following compositions were prepared:
The steroids were weighed in a 50 ml glass beaker. The castor oil (CO) or a mixture of castor oil and soybeans oil (CO+SBO) in a proportion of 70 : 30 was added to the beaker which was heated and the steroids were dissolved. The phospholipids were added to the oil phase and the agitation continued for another five minutes. This mixture was added to a heated aqueous phase containing water and glycerol and agitated for five minutes. The mixture was thereafter homogenized to an emulsion in a high pressure lab scale homogeniser at the technically highest possible pressure. The resultant emulsions were dispersed and sealed 20 ml glass vials which were heat sterilized. The emulsions were analysed with respect to the appearance, the shaking stability, pH and volume distribution. The span was analysed with a Malvern Mastersizer. The appearance of the droplets larger than 1µm and the average area on a relevant picture and the presence of precipitate were investigated with a microscope. The storage stability at 5 and 40°C was also studied.

In the case of `CC(=O)[C@H]1CC[C@H]2[C@@H]3CC[C@H]4C[C@H](O)CC[C@]4(C)[C@H]3C(=O)C[C@]12C` [Alfaxalone, 5α-pregnan-3α-ol-11,20-dione, reference compound], the “D(4:3)” value (vehicle CO (castor oil)) is reported as 0,83 µm, the pH (vehicle CO (castor oil)) is reported as 8.9 and the Span (vehicle CO (castor oil)) is reported as 1.85. The “D(4:3)” value (vehicle CO+SBO (70 : 30)) was 0.58 µm, the Span (vehicle CO+SBO (70 : 30)) was 1.61 and the pH (vehicle CO+SBO (castor oil and soybean oil 70 : 30)) was 8.9. The “Storage 5 and 40°C” value (vehicle CO (castor oil)) was greater than 4 months and the “Storage 5 and 40°C” value (vehicle CO+SBO (70 : 30)) was greater than 4 months.
